Consider eight targets from the supplement of paper PMC12819154, “High-throughput peptide-centric local stability assay extends protein–ligand identification to membrane proteins, tissues and bacteria” (Nature Structural & Molecular Biology, 2025).

Amino acid sequences for entries named in this document (tags omitted). A change or cut given only in a name is not applied to a line headed by its entry.
UniProt Q15345: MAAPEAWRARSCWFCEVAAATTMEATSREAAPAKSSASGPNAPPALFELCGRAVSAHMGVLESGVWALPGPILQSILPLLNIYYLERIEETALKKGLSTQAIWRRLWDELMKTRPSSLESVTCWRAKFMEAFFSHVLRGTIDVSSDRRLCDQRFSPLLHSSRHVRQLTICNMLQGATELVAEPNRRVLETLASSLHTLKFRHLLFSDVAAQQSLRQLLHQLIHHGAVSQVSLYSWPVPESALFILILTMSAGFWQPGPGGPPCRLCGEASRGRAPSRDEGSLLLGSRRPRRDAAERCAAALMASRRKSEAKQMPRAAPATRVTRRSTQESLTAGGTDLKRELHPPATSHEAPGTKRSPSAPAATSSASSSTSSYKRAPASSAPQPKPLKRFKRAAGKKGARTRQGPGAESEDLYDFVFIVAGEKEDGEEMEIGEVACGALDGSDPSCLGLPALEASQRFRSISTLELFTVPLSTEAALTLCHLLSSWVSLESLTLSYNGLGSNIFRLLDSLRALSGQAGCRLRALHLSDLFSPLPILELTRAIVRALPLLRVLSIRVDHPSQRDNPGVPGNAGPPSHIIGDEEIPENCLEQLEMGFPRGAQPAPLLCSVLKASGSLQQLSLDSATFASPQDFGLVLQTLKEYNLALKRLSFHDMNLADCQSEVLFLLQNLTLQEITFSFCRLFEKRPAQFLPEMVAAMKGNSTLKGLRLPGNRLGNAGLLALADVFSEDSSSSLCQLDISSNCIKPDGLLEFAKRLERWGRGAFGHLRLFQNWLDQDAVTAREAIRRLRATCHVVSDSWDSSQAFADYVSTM
UniProt Q15717, whole entry: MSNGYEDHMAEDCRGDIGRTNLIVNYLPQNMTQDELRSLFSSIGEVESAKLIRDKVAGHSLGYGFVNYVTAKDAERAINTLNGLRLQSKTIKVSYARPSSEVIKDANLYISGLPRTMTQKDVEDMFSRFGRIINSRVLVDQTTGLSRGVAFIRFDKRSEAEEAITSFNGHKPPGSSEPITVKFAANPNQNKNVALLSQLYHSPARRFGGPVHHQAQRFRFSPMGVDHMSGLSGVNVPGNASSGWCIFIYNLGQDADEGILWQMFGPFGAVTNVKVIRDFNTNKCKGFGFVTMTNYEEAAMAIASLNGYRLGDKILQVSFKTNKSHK
UniProt Q15269: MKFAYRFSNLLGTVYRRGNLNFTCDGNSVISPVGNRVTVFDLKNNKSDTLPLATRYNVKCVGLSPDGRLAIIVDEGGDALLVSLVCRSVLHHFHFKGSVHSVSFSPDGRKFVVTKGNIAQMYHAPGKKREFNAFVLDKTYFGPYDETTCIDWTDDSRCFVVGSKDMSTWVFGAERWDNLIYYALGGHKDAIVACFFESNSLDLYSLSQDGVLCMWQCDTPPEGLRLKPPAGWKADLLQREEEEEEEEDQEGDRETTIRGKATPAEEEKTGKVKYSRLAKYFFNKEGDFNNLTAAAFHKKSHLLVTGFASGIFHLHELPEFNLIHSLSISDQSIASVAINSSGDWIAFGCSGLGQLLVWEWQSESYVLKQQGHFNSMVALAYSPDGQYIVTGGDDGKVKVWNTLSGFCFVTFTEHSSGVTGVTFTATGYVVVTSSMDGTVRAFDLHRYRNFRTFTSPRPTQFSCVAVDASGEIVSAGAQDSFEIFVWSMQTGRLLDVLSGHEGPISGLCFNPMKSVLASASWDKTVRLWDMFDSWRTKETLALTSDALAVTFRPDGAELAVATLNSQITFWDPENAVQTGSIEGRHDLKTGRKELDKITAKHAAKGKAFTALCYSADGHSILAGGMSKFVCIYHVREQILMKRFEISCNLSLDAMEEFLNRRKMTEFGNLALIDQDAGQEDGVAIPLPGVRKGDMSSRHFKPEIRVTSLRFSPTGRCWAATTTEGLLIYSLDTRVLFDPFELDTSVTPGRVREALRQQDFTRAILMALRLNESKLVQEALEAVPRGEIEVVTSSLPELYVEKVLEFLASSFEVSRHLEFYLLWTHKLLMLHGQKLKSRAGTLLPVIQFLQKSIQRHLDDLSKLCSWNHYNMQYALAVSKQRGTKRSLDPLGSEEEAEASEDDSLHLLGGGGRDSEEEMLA
UniProt Q3KRA9: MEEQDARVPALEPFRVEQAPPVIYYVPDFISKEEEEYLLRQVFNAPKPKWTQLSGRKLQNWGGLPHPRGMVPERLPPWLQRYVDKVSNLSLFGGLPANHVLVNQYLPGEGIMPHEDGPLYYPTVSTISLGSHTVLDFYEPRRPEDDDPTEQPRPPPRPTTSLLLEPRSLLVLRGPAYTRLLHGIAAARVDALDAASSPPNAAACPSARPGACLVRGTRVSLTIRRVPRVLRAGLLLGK
UniProt Q15397: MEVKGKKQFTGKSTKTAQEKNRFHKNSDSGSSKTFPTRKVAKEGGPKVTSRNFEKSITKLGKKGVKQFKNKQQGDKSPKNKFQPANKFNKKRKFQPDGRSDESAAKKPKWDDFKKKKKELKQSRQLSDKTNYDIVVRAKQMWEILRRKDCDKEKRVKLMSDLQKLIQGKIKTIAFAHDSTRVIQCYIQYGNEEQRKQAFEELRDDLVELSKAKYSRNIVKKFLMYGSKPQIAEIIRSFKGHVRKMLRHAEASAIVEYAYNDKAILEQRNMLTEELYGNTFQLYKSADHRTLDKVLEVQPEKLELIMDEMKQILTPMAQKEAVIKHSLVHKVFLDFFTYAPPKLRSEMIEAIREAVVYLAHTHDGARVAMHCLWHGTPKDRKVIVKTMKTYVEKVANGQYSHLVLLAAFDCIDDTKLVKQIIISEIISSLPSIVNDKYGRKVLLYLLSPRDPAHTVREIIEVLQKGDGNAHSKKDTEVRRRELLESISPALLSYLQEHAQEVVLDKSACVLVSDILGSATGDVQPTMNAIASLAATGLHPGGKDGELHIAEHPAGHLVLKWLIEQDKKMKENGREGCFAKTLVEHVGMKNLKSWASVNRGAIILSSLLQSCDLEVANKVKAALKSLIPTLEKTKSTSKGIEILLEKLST
UniProt Q15173: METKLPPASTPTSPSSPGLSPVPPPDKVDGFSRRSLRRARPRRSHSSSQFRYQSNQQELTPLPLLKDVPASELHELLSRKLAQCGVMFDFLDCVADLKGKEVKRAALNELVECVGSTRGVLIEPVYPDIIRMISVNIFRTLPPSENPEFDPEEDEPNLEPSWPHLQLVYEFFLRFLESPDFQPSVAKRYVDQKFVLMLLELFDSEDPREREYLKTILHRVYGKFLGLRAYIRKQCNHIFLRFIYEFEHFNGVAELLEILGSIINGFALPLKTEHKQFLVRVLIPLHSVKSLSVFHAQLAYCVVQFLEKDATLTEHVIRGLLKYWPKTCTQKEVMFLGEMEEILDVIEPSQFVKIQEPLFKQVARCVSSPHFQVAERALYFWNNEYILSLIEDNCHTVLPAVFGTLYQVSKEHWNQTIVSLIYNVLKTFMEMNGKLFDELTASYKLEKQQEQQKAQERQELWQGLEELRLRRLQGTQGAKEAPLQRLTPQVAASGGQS
UniProt Q15438: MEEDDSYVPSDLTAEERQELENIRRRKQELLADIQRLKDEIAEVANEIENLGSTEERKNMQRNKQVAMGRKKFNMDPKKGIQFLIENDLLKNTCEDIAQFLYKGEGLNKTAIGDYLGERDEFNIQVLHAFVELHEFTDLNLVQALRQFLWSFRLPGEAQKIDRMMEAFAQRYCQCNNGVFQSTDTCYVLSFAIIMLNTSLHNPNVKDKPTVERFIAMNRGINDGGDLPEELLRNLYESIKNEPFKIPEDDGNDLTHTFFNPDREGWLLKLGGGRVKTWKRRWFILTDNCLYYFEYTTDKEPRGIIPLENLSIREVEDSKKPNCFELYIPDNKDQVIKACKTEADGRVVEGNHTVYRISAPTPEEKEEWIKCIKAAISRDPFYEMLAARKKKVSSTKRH
UniProt Q2TB10: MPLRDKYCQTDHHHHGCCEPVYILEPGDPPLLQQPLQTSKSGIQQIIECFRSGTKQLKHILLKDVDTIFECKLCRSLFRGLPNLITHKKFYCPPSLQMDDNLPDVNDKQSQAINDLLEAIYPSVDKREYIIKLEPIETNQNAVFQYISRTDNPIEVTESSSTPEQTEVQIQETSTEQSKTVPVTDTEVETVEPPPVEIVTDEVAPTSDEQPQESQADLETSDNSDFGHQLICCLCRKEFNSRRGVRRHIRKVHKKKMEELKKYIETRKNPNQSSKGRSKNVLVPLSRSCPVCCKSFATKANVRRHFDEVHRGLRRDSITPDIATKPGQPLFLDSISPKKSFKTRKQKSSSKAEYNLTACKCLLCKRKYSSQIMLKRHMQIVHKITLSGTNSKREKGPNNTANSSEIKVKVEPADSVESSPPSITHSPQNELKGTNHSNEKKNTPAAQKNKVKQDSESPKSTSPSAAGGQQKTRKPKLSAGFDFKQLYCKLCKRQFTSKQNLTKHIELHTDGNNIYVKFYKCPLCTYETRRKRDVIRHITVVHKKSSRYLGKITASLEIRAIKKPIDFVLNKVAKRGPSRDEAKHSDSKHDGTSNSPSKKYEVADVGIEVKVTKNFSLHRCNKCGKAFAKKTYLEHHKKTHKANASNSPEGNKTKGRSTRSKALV

This is one part of the list. Most entries show no effect beyond the scatter of the controls.

Compound in this assay: CN[C@@H]1C[C@H]2O[C@@](C)([C@@H]1OC)n1c3ccccc3c3c4c(c5c6ccccc6n2c5c31)C(=O)NC4 [staurosporine]
The assay can be described thus: log2 fold change of tryptic peptide abundance, ligand vs vehicle (limited proteolysis) (log2 ratio); higher = more trypsin-susceptible (destabilized). Particulars: ligand concentration: 20 uM; sample: K562 cleared lysate; digestion: 4 min, 22 C (HT-PELSA RT4min, Orbitrap Astral).
Take “LRRC41 (peptide sequence: APASSAPQPKPLKR, peptide start residue: 377) (UniProt Q15345)”: the log2 fold change is -0.44. The same measure for “ELAVL1 (peptide sequence: SNGYEDHMAEDCR, peptide start residue: 2) (UniProt Q15717)”: -0.535; for “PWP2 (peptide sequence: ELDKITAK, peptide start residue: 593) (UniProt Q15269)”: 0.223; for “ALKBH6 (peptide sequence: GMVPERLPPWLQR, peptide start residue: 69) (UniProt Q3KRA9)”: 0.198. In the case of “UniProt Q15397 (peptide sequence: VIQCYIQYGNEEQRK, peptide start residue: 182)”, the log2 fold change was -0.343. The same measure for “PPP2R5B (peptide sequence: CVSSPHFQVAER, peptide start residue: 410) (UniProt Q15173)”: 0.126.

Regarding “CYTH1 (peptide sequence: LKDEIAEVANEIENLGSTEERK, peptide start residue: 37) (UniProt Q15438)”, the log2 fold change is -0.513. For the target “ZNF800 (peptide sequence: VKQDSESPK, peptide start residue: 451) (UniProt Q2TB10)”, the log2 fold change is -0.355.
